In paper PMC11951083, “Highly Specific Miniaturized Fluorescent Monoacylglycerol Lipase Probes Enable Translational Research” (Journal of the American Chemical Society, 2025):

System: HT-29 cells
Assay: Confocal colocalization with ER-Tracker Red in live HT-29 cells
Format: cell-based, human
Conditions: costaining with ER-Tracker red, probe 150 nM

Structure (SMILES)	Pearson correlation coefficient r
O=C(O[C@H](CO)C(F)(F)F)N1CC2(CC(CC3=C4C=CC=[N+]4[B-](F)(F)n4cccc43)C2)C1 [Compound 1]	0.98
O=C(N1CC2(CC(CC3=C4C=CC=[N+]4[B-](F)(F)n4cccc43)C2)C1)N1CC2(CC(n3cnc(C4CC4)n3)C2)C1 [Compound 5]	0.87
